Reference: PMC12501252
Results are given in words; binding and its absence hold for the method and conditions named. For part of these data: Binding seen in cells or lysates may run through a third protein. Some entries that bind do so weakly or less than the wild type. One block for each molecule: values may come before it.

Amino acid sequences for entries named in this document (tags omitted). Residues count along the entry.
UniProt Q07021, residues 74-282: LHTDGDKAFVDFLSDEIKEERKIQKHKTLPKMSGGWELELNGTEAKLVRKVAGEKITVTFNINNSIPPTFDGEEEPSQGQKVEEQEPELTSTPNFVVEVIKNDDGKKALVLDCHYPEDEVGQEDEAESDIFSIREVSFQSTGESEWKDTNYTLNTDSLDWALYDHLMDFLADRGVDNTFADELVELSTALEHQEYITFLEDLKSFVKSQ

Legend:
[1] = target: T1, CHCHD10 (human) (human (endogenous in HEK293T)) (UniProt Q8WYQ3); assay: co-IP; endogenous CHCHD2 or CHCHD10 immunoprecipitated with antibodies on Dynabeads Protein G from mitochondria of HEK293T cells lysed in 10 mM Tris-HCl pH 7.5, 150 mM NaCl, 1% digitonin; 2 h at 4 °C; eluates analysed by Western blot
T1 sequence: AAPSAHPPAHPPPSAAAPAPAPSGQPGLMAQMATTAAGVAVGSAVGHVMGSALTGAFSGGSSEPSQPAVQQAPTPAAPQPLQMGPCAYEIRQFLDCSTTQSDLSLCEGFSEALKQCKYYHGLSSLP

[2] = target: T2, CHCHD2 (human) (human (endogenous in HEK293T)) (UniProt Q9Y6H1); assay: as above
T2 sequence: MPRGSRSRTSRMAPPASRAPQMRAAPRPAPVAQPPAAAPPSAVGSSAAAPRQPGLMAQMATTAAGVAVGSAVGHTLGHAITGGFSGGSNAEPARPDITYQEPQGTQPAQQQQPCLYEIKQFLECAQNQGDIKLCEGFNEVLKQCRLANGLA

[3] = target: T3, CHCHD3 (mouse) (mouse (endogenous in mouse tissues)) (UniProt Q9CRB9); assay: native gel or EMSA; two-dimensional BN-PAGE/SDS-PAGE with Western blot; mitochondria from brain, heart and skeletal muscle of Chchd2+/+ and Chchd2-/- mice, and from heart, skeletal muscle and liver of mouse models of mitochondrial dysfunction (RNaseH1, Tfam, Tefm knockouts, IMT treatment) and controls; solubilised in 1% DDM or 1% digitonin
T3 sequence: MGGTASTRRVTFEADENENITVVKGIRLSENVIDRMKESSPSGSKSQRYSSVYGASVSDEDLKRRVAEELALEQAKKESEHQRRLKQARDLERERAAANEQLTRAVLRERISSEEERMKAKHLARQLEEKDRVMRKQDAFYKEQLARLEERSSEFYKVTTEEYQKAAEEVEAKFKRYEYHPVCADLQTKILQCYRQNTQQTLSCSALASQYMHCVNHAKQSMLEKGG

binding [1]: binds | binding [2]: binds
Molecule: p32 (C1QBP) (human) (from UniProt Q07021 74-282)

binding [3]: no binding
B1: CHCHD2 (mouse) (protein, UniProt Q9D1L0 1-153)
chain: MPRGSRSRTSRVTPPASRAPQMRAAPRRAPAAQPPAAAAPSAVGSPAAAPRQPGLMAQMATTAAGVAVGSAVGHTLGHAITGGFSGGGSAEPAKPDITYQEPQGAQLQNQQSFGPCSLEIKQFLECAQNQSDVKLCEGFNEVLRQCRIANGLM
